Values joined by “and” are separate entries in the source; they are usually repeats but may differ in a detail not shown here. Equal entries are not always repeated. This is one part of the list. Many values rest on one well or one pass, so single values are uncertain.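 Hepatocyte-like cells derived from human stem cells with CRISPR-disrupted DGUOK model liver mtDNA depletion syndrome. Each well's ATP signal was scored against other wells on the same plate, and drugs scoring 3 or above were primary hits.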

The test deals with DGUOK Δ14/Δ5 iPSC-derived hepatocyte-like cells (SV20). Description: ATP level (CellTiter-Glo luminescence) Z score relative to plate distribution, under 2-DG glycolysis block; higher = more cellular ATP (rescue of mitochondrial ATP production). The following applies: 5 µM; treatment time: day 15 to day 20 of differentiation (5 days); 2-deoxy-D-glucose: 20 mM for 24 h before assay. In general terms: ATP-based viability assays read luminescence as a measure of living cells.
As to `FC(F)(F)C(Cl)Br` (stereo unspecified), the ATP level is inactive: 1.47.
Regarding `O=C(O)CN1C(=O)c2cccc3cccc(c23)C1=O`, the ATP level is inactive: 1.68.
Turning to `Cc1ccc(C(=O)c2ccc(CC(=O)O)n2C)cc1`, the ATP level was inactive: -0.293.
Take `CCCCN(CCCC)CCCOC(=O)c1ccc(N)cc1`: the ATP level was inactive: -0.325.
As to `CC12CCC3C(CC3(C)C)C(C)(CCC1=O)O2` (stereo unspecified), the ATP level was inactive: -1.85.
With `CC(=O)OCC(=O)[C@@]1(O)CC[C@H]2[C@@H]3CCC4=CC(=O)CC[C@]4(C)[C@@]3(F)[C@@H](O)C[C@@]21C`, the ATP level is inactive: 1.23.
Then `CC(=O)O[C@@H]1C[C@H]2C(C)(C)C(=O)CC[C@]2(C)[C@H]2CC[C@@]3(C)[C@H](c4ccoc4)OC(=O)[C@H]4O[C@]43[C@@]21C`, with inactive: -1.32.
Then `O=C(O)CCCCCCCC(=O)O`, with inactive: 0.62; and `NS(=O)(=O)c1cc(C2(O)NC(=O)c3ccccc32)ccc1Cl` (stereo unspecified), with inactive: -2.44; and `CCCCCCCCCCCCCCCC(=O)OC/C=C(C)/C=C/C=C(C)/C=C/C1=C(C)CCCC1(C)C`, with inactive: -9.64.
Then `C=CC(N)CCC(=O)O` (stereo unspecified), with inactive: 2.73.
In the case of `CC(C)c1c(C(=O)Nc2ccccc2)c(-c2ccccc2)c(-c2ccc(F)cc2)n1CC[C@@H](O)C[C@@H](O)CC(=O)O`, the ATP level was inactive: 1.28.
For `Cc1ncc(C[n+]2csc(CCO)c2C)c(N)n1` the value was inactive: 0.766; for `CC(=O)OCC(=O)[C@@]1(O)CC[C@H]2[C@@H]3CCC4=CC(=O)CC[C@]4(C)[C@H]3[C@@H](O)C[C@@]21C`, inactive: 2.34.
Take `CCN[C@H]1CN(CCCOC)S(=O)(=O)c2sc(S(N)(=O)=O)cc21`: the ATP level was inactive: 1.42.
On to `CC(=O)S[C@@H]1CC2=CC(=O)CC[C@]2(C)[C@H]2CC[C@@]3(C)[C@@H](CC[C@@]34CCC(=O)O4)[C@H]12`, for which the ATP level is inactive: 0.412.
As to `CCCc1cc(C(N)=S)ccn1`, the ATP level was inactive: 1.99.
As for `CC(Cc1cccc(C(F)(F)F)c1)NCCOC(=O)c1ccccc1` (stereo unspecified), the ATP level was inactive: 0.771.
For `C=C1CC[C@H](O)C/C1=C/C=C1\CCC[C@]2(C)[C@@H]([C@H](C)CCCC(C)C)CC[C@@H]12` the value was inactive: 0.695.
Then `NNCCc1ccccc1`, with inactive: -0.413.
For `Cc1nccnc1N1CCCCC1` the value was inactive: 1.75; for `CC(C)(CO)[C@@H](O)C(=O)NCCC(=O)NCCSSCCNC(=O)CCNC(=O)[C@H](O)C(C)(C)CO`, inactive: 0.927; for `CN1CCN(CC/C=C2/c3ccccc3Sc3ccc(S(=O)(=O)N(C)C)cc32)CC1`, inactive: -2.6.
With `CN1CCC(=C2c3ccccc3C=Cc3ccccc32)CC1`, the ATP level was inactive: -6.27.
`COc1ccc(-c2cc(=O)c3ccccc3o2)cc1`: the ATP level is inactive: 1.41.
Take `N=C(N)NC(=N)NCCc1ccccc1`: the ATP level was inactive: -4.38.
On to `Cc1cccc(C)c1NC(=O)c1ccccc1C(=O)O`, for which the ATP level was inactive: 2.99.
With `C[C@](N)(Cc1ccc(O)cc1)C(=O)O` [alpha-METHYL-L-TYROSINE], the ATP level is inactive: 2.2.
`CCN(CC)CCCC(C)Nc1ccnc2cc(Cl)ccc12` (stereo unspecified): the ATP level was inactive: -1.82.
Take `FCOC(C(F)(F)F)C(F)(F)F`: the ATP level is inactive: -1.02.
Regarding `O=C1CC(c2ccccc2)Oc2ccccc21` (stereo unspecified), the ATP level was inactive: -0.869.
For `CCCCCC1C(=O)CCC1CC(=O)OC` (stereo unspecified), the ATP level was inactive: 1.22.
For `Nc1ccc(S(=O)(=O)NC(=O)c2ccccc2)cc1` the value was inactive: 0.323; for `C[N+](C)(C)CCOP(=O)(O)OP(=O)([O-])OC[C@H]1O[C@@H](n2ccc(N)nc2=O)[C@H](O)[C@@H]1O`, inactive: 0.844; for `CC(C)c1nc(N(C)S(C)(=O)=O)nc(-c2ccc(F)cc2)c1/C=C/[C@@H](O)C[C@@H](O)CC(=O)O`, inactive: 0.29.
For `C=C(CC)C(=O)c1ccc(OCC(=O)O)c(Cl)c1Cl`, the ATP level was inactive: -0.403.
For `Oc1ccc2c(c1)OC[C@]1(O)Cc3cc(O)c(O)cc3[C@H]21`, the ATP level was inactive: -1.42.
Then `C[Se]CC[C@H](N)C(=O)O`, with inactive: 1.11; and `C1N2CN3CN1CN(C2)C3`, with inactive: 0.0362; and `CCCCCN(C)CCC(O)(P(=O)(O)O)P(=O)(O)O`, with inactive: 2.27.
On to `Cc1ncc([N+](=O)[O-])n1C`, for which the ATP level is inactive: -0.405.
For `C[C@@H](O)[C@H]1C(=O)N2C(C(=O)O)=C(SCCNC=N)C[C@H]12` the value was inactive: -15.1.
For `c1ccc2c(c1)CCCC2C1=NCCN1` (stereo unspecified) the value was inactive: -0.375; for `C=CCc1ccc(O)c(OC)c1`, inactive: -0.451.
With `CCn1cc(C(=O)O)c(=O)c2cc(F)c(N3CCNCC3)nc21`, the ATP level is inactive: -29.8.
Then `CC(=O)OCC(=O)NCCCOc1cccc(CN2CCCCC2)c1`, with inactive: 0.123; and `CN(C)c1cnccn1`, with inactive: -3.28.
With `COc1cc(O)c(C(=O)/C=C/c2ccc(OC)c(O)c2)c(OC)c1`, the ATP level is inactive: 1.02.
For `CCCc1ncc(C[n+]2ccccc2C)c(N)n1` the value was inactive: 1.48.
Then `C=CC(C)(O)CCC=C(C)CCC=C(C)C` (mixture of isomers), with inactive: -1.21.
As to `CC(=O)N[C@@H](Cc1c[nH]c2ccccc12)C(=O)O`, the ATP level is inactive: -0.865.
In the case of `Oc1ccc(C2CNCCc3c2cc(O)c(O)c3Cl)cc1` (stereo unspecified), the ATP level is inactive: 1.67.
For `COc1ccccc1-c1coc2cc(O)ccc2c1=O` the value was inactive: -4; for `CC(C(=O)O)c1cccc(Oc2ccccc2)c1` (stereo unspecified), inactive: -4.47; for `O=C1OC(c2ccc(O)cc2)(c2ccc(O)cc2)c2ccccc21`, inactive: 1.44.
Then `COc1cc(C(=S)N2CCOCC2)ccc1O`, with inactive: 2.29; and `COc1cc(OC)c2c(=O)cc(-c3ccccc3)oc2c1`, with inactive: -1.32.
For `COc1ccc2c(C)cc(=O)oc2c1` the value was inactive: 1.07; for `COC(=O)C[C@H]1C(C)(C)[C@@H](O)[C@@H]2CC3=C4C=C(OC)O[C@@H](c5ccoc5)[C@]4(C)CCC3[C@@]1(C)C2=O` (stereo partly drawn) [3-DEOXO-3beta-HYDROXYMEXICANOLIDE 16-ENOL ETHER], inactive: -1.76; for `COc1cc2occ(-c3ccc(OC)c(OC)c3OC)c(=O)c2cc1OC`, inactive: 1.78.
For `Cc1ccc(N(CC2=NCCN2)c2cccc(O)c2)cc1`, the ATP level is inactive: 0.875.
Then `CCc1ccc(CCOc2ccc(CC3SC(=O)NC3=O)cc2)nc1` (stereo unspecified), with inactive: 2.04; and `CCCSc1ccc2[nH]c(NC(=O)OC)nc2c1`, with inactive: -2.81.
Take `Cc1c(Cl)cccc1Nc1ccccc1C(=O)O`: the ATP level was inactive: -5.45.
Consider `C[C@@H]1CC[C@H]2C(C)(C)[C@H]3C[C@@]12CC[C@@]3(C)O`, for which the ATP level is inactive: 1.18.
For the molecule `CO[C@H]1/C=C/O[C@@]2(C)Oc3c(C)c(O)c4c(O)c(c(/C=N/N5CCN(C)CC5)c(O)c4c3C2=O)NC(=O)/C(C)=C\C=C\[C@H](C)[C@H](O)[C@@H](C)[C@@H](O)[C@@H](C)[C@H](OC(C)=O)[C@@H]1C`, the ATP level is inactive: -0.026.
For `COc1cc(C)c(C(=O)O)c(O)c1` the value was inactive: 1.73; for `CC(C(=O)O)c1ccc(CC2CCCC2=O)cc1` (stereo unspecified), inactive: 0.282.
Consider `CC[C@H]1OC(=O)[C@H](C)[C@@H](O[C@H]2C[C@@](C)(OC)[C@@H](O)[C@H](C)O2)[C@H](C)[C@@H](O[C@@H]2O[C@H](C)C[C@H](N(C)C)[C@H]2O)[C@](C)(O)C[C@@H](C)C(=O)[C@H](C)[C@@H](O)[C@]1(C)O`, for which the ATP level is inactive: 1.07 and inactive: -0.173.
For `CC1=C(/C=C/C(C)=C/C=C/C(C)=C/C=C/C=C(C)/C=C/C=C(C)/C=C/C2=C(C)CCCC2(C)C)C(C)(C)CCC1` [beta-CAROTENE [2mM]] the value was inactive: -11; for `OCCN1CCN(CCCN2c3ccccc3Sc3ccc(C(F)(F)F)cc32)CC1`, inactive: -2.43.
For `CC(C)(Oc1ccc(CCNC(=O)c2ccc(Cl)cc2)cc1)C(=O)O` the value was inactive: 1.47; for `c1ccc(CC2=NCCN2)cc1`, inactive: -0.799.
Then `NCCCCC(=O)O`, with inactive: -1.24; and `CC1=CC(=O)[C@H]2C(C)(C)CCC[C@]2(C)[C@@]1(O)CCc1ccoc1`, with inactive: -2.82; and `CC(=O)OCC(=O)[C@H]1CC[C@H]2[C@@H]3CC=C4C[C@@H](O)CC[C@]4(C)[C@H]3CC[C@]12C`, with inactive: 0.0911.
For the molecule `Clc1ccc2c(c1)C(N1CCNCC1)=Nc1ccccc1O2`, the ATP level is inactive: -17.3.
For `O=C1c2ccccc2C(=O)C1c1ccccc1` the value was inactive: 1.33.
Then `CC(C)[C@@H](C)/C=C/[C@@H](C)[C@H]1CC[C@H]2C3=CC=C4C[C@@H](O)CC[C@]4(C)[C@H]3CC[C@]12C`, with inactive: 1.1; and `CC1(C)C=Cc2c(c3c(c4c(=O)c(-c5ccc(O)cc5)coc24)OC(C)(C)CC3)O1`, with inactive: -1.02.
Turning to `COc1ccc(-c2coc3cc(O)ccc3c2=O)cc1`, the ATP level was inactive: -1.87.
As to `Oc1c(Br)cc(Br)c2cccnc12`, the ATP level is inactive: -1.11.
Consider `COc1ccc(C(=O)CCC(=O)O)c2ccccc12`, for which the ATP level is inactive: -0.641.
Turning to `NC(=O)c1ccccc1O`, the ATP level is inactive: -12.3.
In the case of `COc1cc2c(cc1OC)C1C(=O)c3c(O)cc4c(c3OC1CO2)C=CC(C)(C)O4` (stereo not drawn) [alpha-TOXICAROL (dl)], the ATP level was inactive: -14.9.
Then `Nc1nc(F)nc2c1ncn2[C@@H]1O[C@H](COP(=O)(O)O)[C@@H](O)[C@@H]1O`, with inactive: 0.928.
Take `CC(=O)[C@@]12O[C@](C)(c3ccccc3)O[C@@H]1C[C@H]1[C@@H]3CCC4=CC(=O)CC[C@]4(C)[C@H]3CC[C@@]12C`: the ATP level was inactive: 1.92.
Consider `COCCCC/C(=N\OCCN)c1ccc(C(F)(F)F)cc1`, for which the ATP level was inactive: 1.84.
Then `COC(=O)[C@H](c1ccccc1Cl)N1CCc2sccc2C1`, with inactive: 2.58; and `C[C@]12CCC(=O)C=C1CC[C@@H]1[C@@H]2C(=O)C[C@@]2(C)[C@H]1CC[C@]2(O)C(=O)CO`, with inactive: 1.15.
As for `C[C@H](N[C@@H](CCc1ccccc1)C(=O)O)C(=O)N1CCC[C@H]1C(=O)O`, the ATP level is active: 4.12.

(Values after the supplement of paper PMC6289059.)
